# In all, about 320,000 compounds went through this assay and about 2,100 (0.66%) were called active. Inconclusive results, whose numbers are uncertain, are shown with a selection of clear calls. The call rests on the fitted dose curve; in most records, active means well fitted inhibition curve with a large enough effect in the signal ratio, with a control signal flat (not every such curve was filed as active); inconclusive means small, poorly fitted or top-dose-only effect, or effect the other way, or a change in a side signal; inactive means flat fitted curve, though single readings scatter; the % refers to the signal ratio. A potency beside an inconclusive call is a rough fit, not a confirmed value.
# Experiment: qHTS Assay for Lipid Storage Modulators in Drosophila S3 Cells
# Details: BODIPY lipid droplet fluorescence, 18-24 h, cells fed with added oleic acid; lipid storage change, negative = inhibition: at 46.1 µM (top of the series) unless noted
# In short: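 Drosophila S3 cells loaded with oleic acid (400 uM, as added) and compounds at several concentrations; lipid droplets imaged by 488-nm laser-scanning cytometry, 500–530 nm intensity and object ratio to cell channel. Percent activity normalized to 20 uM Triacsin C.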
# On the % scale 0 is the no-effect control and ±100 the full control effect; potency means the concentration at half of the fitted maximal effect.
SMILES,Potency,"lipid storage change, negative = inhibition",outcome
CC1(C)Cc2nc(NCCN3CCOCC3)c(C#N)cc2CO1,"inconclusive: 16.4 µM [falling, single point]",–,–
O=S(=O)(/N=C(/Nc1ccccn1)c1ccccc1)c1ccc(F)cc1,–,inconclusive: 42.1%,–
O=P(O)(Cc1ccccc1)Cc1ccccc1,–,inconclusive: 97.5%,–
COc1ccc(CCNC(=O)C23CCC(C)(C(=O)O2)C3(C)C)cc1OC (stereo not drawn),–,inconclusive: 18.2%,–
O=S1(=O)c2ccccc2N=NN1Cc1cc(Cl)cc(Cl)c1,–,inconclusive: -4.89%,–
COc1ccc(C(=O)C(C)OC(=O)CCN2C(=O)C3CC=CCC3C2=O)cc1 (stereo not drawn),"inconclusive: 0.116 µM [activator, full curve, poor fit]",–,–
COc1cc(C(=O)NCC2CCCN2S(=O)(=O)c2cccs2)cc(OC)c1OC (stereo not drawn),–,inconclusive: 51.7% [activator] [at 0.0737 µM],–
CCOc1ccc(NC(=O)CC(C)S(=O)(=O)c2ccc3c(c2)NC(=O)CO3)cc1 (stereo not drawn),–,inconclusive: -12.9%,–
NC(=S)N/N=C/c1ccc(C(F)(F)F)cc1,"inconclusive: 14.6 µM [falling, partial curve, poor fit]",–,–
CC(=O)c1ccc(N2CCN(S(=O)(=O)c3ccc(-c4cc(C)no4)s3)CC2)cc1,–,–,inactive [at 46.1 µM]
COc1cccc(N2CCN(C(=S)NCc3ccco3)CC2)c1,–,inconclusive: 4.81%,–
CCc1nnc(NC(=O)c2ccc(-c3cccc(C(F)(F)F)c3)o2)s1,–,inconclusive: -2.01%,–
COc1ccccc1N1CCN(C2CCCN(C(=O)CN3CCCCC3=O)C2)CC1 (stereo not drawn),–,inconclusive: -33.3%,–
CCOc1ccc(C(C)=O)cc1CN1C(=O)NC2(CCCCCC2)C1=O,active: 0.13 µM,–,–
COC(=O)c1ccc(/C=N/Nc2nc(-c3ccc(Cl)cc3Cl)cs2)cc1,–,inconclusive: 11.6%,–
NS(=O)(=O)c1ccc(CNC(=S)NC2CCCC2)cc1,–,inconclusive: -12%,–
Cc1nn(C)c2nc(-c3cccs3)cc(C(F)(F)F)c12,"inconclusive: 6.51 µM [activator, partial curve, poor fit]",–,–
Cc1ccc(-c2nn(-c3ccccc3)c3[nH]c(=O)c(CNCc4ccccc4)cc23)cc1,"inconclusive: 29.1 µM [cytotoxic, single point]",–,–
CC(C)[C@H](NS(=O)(=O)c1ccccc1)C(=O)OCn1nnc2ccccc2c1=O,–,inactive: -13.3%,–
Cc1c(S(=O)(=O)NC(C)c2ccccc2)c(=O)n(C)c(=O)n1C (stereo not drawn),–,inconclusive: -4.57%,–
CC1CCCC(NC(=O)c2cccs2)C1C (stereo not drawn),–,inconclusive: -9.8%,–
CC1CCN(C(=O)COC(=O)CCC(=O)c2cccs2)CC1,"inconclusive: 1.84 µM [activator, partial curve]",–,–
NS(=O)(=O)c1ccc(CCNCc2ccccc2OCc2ccc(Cl)cc2)cc1,–,inconclusive: -17.1%,–
CN(C)c1ncc(S(=O)(=O)c2ccc(Cl)cc2)c(-c2ccccc2)n1,–,inconclusive: 22%,–
COCCn1c(Cc2ccccc2)nnc1SCC(=O)N1CCCCC1C (stereo not drawn),–,inconclusive: 18.3%,–
N#CC1=C(N)N(c2ccc(F)cc2)C2=C(C1c1ccc(O)cc1)S(=O)(=O)CC2 (stereo not drawn),–,inconclusive: -3.42%,–

SMILES,Potency,"lipid storage change, negative = inhibition",outcome
Cc1coc2cc3oc(=O)c(CC(=O)N4C[C@H]5C[C@@H](C4)c4cccc(=O)n4C5)c(C)c3cc12,–,inconclusive: 72.7%,–
CCOc1ccc(-c2noc(CCCC(=O)NCC3CCCO3)n2)cc1OC (stereo not drawn),"inconclusive: 18.4 µM [falling, single point]",–,–
COc1ccc(CCC(=O)Nc2cc(S(=O)(=O)N3CCOCC3)ccc2OC(C)C)cc1,–,inconclusive: 0.727%,–
O=C(Nc1ccccc1Cl)c1cc(=O)c2ccccc2o1,–,inconclusive: -44%,–
O=C(Cn1ccc(NC(=O)OCc2ccccc2)nc1=O)NCCCn1ccnc1,–,inconclusive: 0.558%,–
COc1ccccc1CNC(=O)c1oc2ccccc2c1C,–,inconclusive: 61.1%,–
Cc1cccc(-n2c(Cc3cc(=O)[nH]c(=O)[nH]3)nnc2SCC(=O)NCC2CCCO2)c1 (stereo not drawn),–,inconclusive: -61.3%,–
O=[N+]([O-])c1cc([N+](=O)[O-])c(Oc2cc(F)cc(F)c2F)cc1NN1CCCCC1,"inconclusive: 6.51 µM [activator, partial curve]",–,–
Cc1ccc(-c2nc3cc(Br)cnc3nc2-c2ccc(C)cc2)cc1,–,inconclusive: -11.8%,–
CCC(=O)Nc1cccc(NC(=O)c2ccc3c(c2)OCO3)c1,"inconclusive: 0.731 µM [activator, full curve]",–,–
Cc1nc(Nc2ccc3c(c2)OCO3)c2oc3ccccc3c2n1,"inconclusive: 0.0046 µM [falling, full curve, poor fit]",–,–
CC(C)N1CCN(Cc2ccc(C#CCCO)cc2)CC1CCO (stereo not drawn),–,inconclusive: 34.2%,–
COc1cccc(CN(C)CC(=O)Nc2cc(S(=O)(=O)N3CCCC3)ccc2Cl)c1OC,–,inconclusive,–
CC1=Cc2ccccc2C(C#N)N1C(=O)c1ccccc1 (stereo not drawn),–,inconclusive: 27.7%,–
CN1C(=O)Cc2cc(S(=O)(=O)NCCc3ccccc3)ccc21,–,inconclusive: -77.7%,–
CC(C)Cc1nnc(NC(=O)c2ccc(S(=O)(=O)N3CCCC3)cc2)s1,–,inconclusive,–
COc1ccc2[nH]c(=O)c(CN(C(C)=O)c3cccc(C)c3)cc2c1,–,inconclusive: 22.1%,–
Cc1ccc(Cl)cc1N1CCN(C(=O)Cc2c(C(=O)O)[nH]c3ccc(Cl)cc23)CC1,–,inconclusive: 20.6%,–
CCN(C(=O)COC(=O)/C=C/c1ccc(C)o1)c1c(N)n(Cc2ccccc2)c(=O)[nH]c1=O,–,inconclusive: -0.977%,–
Cc1cc([N+](=O)[O-])nn1Cc1noc(C(=O)NCc2ccc3c(c2)OCO3)n1,"inconclusive: 32.6 µM [activator, single point]",–,–
CCn1c(SCC(=O)NC2CCCC2)nc2c1c(=O)n(C)c(=O)n2C,"inconclusive: 6.51 µM [falling, single point]",–,–
Clc1nc(Nc2ccc(N3CCOCC3)cc2)c2ccccc2n1,"inconclusive: 29.1 µM [falling, single point]",–,–
O=S(=O)(c1ccc2nc(COc3ccc(Cl)cc3Cl)[nH]c2c1)N1CCOCC1,"inconclusive: 5.8 µM [falling, single point]",–,–
O=C(c1ccc(N2CCCC2=O)cc1)N1CCN(c2ccccc2)CC1,–,inconclusive: 19.4%,–
CCCCNC(=O)CCCCCn1c(=O)[nH]c2cc(C(=O)OC)ccc2c1=O,"inconclusive: 0.82 µM [falling, full curve, poor fit]",–,–
O=C(C1CC(=O)N(c2ccccc2)C1)N1CCC(c2nc3ccccc3[nH]2)CC1 (stereo not drawn),–,inconclusive: 34.5%,–

# Single values from above.
# In lipid storage change, negative = inhibition, `COc1ccc(CCC(=O)Nc2cc(S(=O)(=O)N3CCOCC3)ccc2OC(C)C)cc1` is listed with inconclusive: 0.727%
# In lipid storage change, negative = inhibition, `Cc1ccc(-c2nc3cc(Br)cnc3nc2-c2ccc(C)cc2)cc1` is listed with inconclusive: -11.8%
# In Potency, `O=[N+]([O-])c1cc([N+](=O)[O-])c(Oc2cc(F)cc(F)c2F)cc1NN1CCCCC1` is listed with inconclusive: 6.51 µM [activator, partial curve]
# In lipid storage change, negative = inhibition, `Cc1coc2cc3oc(=O)c(CC(=O)N4C[C@H]5C[C@@H](C4)c4cccc(=O)n4C5)c(C)c3cc12` is listed with inconclusive: 72.7%

# The listing continues:

SMILES,Potency,"lipid storage change, negative = inhibition",outcome
N#Cc1cn(-c2ccccc2)nc1-c1ccc2c(c1)OCCO2,"inconclusive: 0.731 µM [activator, full curve, poor fit]",–,–
O=[N+]([O-])c1cc(S(=O)(=O)C(F)(F)F)ccc1Sc1nc2ccccc2s1,"inconclusive: 29.1 µM [cytotoxic, single point]",–,–
COc1ccc(NC(C)=O)cc1S(=O)(=O)NC(Cc1ccccc1)C(=O)O (stereo not drawn),–,inactive: 17.4%,–
CS(=O)(=O)Nc1ccc2c(c1)C(=O)OC2,"inconclusive: 29.1 µM [falling, single point]",–,–
CN1CCCCCC1=Nc1ccccc1C#N,–,inconclusive: -1.3%,–
O=C1C(C2=C(O)c3ccccc3C2=O)=Nc2ccccc21,"inconclusive: 23.1 µM [falling, single point]",–,–
O=[N+]([O-])c1ccc(C2Nc3cccc4cccc(c34)N2)cc1,–,inconclusive: -29.5%,–
Cn1ccc2cc(-c3ccc4ncnc(NCc5cccnc5)c4c3)ccc21,–,inconclusive: 33%,–
O=C(CCN1C(=O)[C@@H]2Cc3ccccc3CN2C1=O)NCc1ccc(Cl)cc1,–,inconclusive: -12.7%,–
CCOc1ccc(N2C(=O)CC(SCC(=O)O)C2=O)cc1 (stereo not drawn),–,inconclusive: -18.1%,–
CC(C)N1CCc2c(sc(NC(=O)CCc3ccccc3)c2C(N)=O)C1,–,inconclusive: 35.1%,–
Cc1cc2ncn(/N=C/c3ccc([N+](=O)[O-])o3)c2cc1C,–,inconclusive: -36.7%,–
O=Cc1c(N2CCN(CCO)CC2)nc2ccccn2c1=O,–,inconclusive: 133%,–
Nc1nnc(SCC(=O)NC2CCCCCCC2)s1,–,inconclusive: 6.63%,–
Cc1cccc(N2CC(=O)N(c3cccc(C)c3)CC2=O)c1,–,inconclusive: -38.6%,–
CCOc1ccc(NC(=O)C(C)Oc2ccc(C#N)cc2)cc1S(=O)(=O)N1CCCC1 (stereo not drawn),"inconclusive: 29.1 µM [falling, single point]",–,–
C/C(=N/NC(=O)c1ccoc1C)c1cccc(NC(=O)C(F)(F)F)c1,–,inconclusive: 15.2%,–
Cn1c(N2CCN(C(c3ccccc3)c3ccccc3)CC2)nc2ccccc21,"inconclusive: 11.6 µM [activator, partial curve]",–,–
N#C/C(=C1/CCCCCN1)c1nc2ccccc2s1,–,inconclusive: -6.14%,–
COc1ccc(N2CCN(CC(=O)Nc3cccc(S(=O)(=O)N4CCOCC4)c3)CC2)cc1,active: 16.4 µM,–,–
Cc1ccc(OCC(=O)NC(=S)Nc2cccc(C)n2)cc1,–,inconclusive: 12.7%,–
COCCNC(=O)Cn1c(=O)n(CCCC(=O)NCc2ccc3c(c2)OCO3)c(=O)c2sccc21,–,–,inactive [at 46.1 µM]
CCCc1ccc(OCCNC(=O)C2CCCCC2)cc1,–,inactive: 10.9%,–
CSCCC(NC(=O)c1ccccc1)C(=O)N1CCCCCCC1 (stereo not drawn),–,inconclusive: 5.89%,–
COCCNc1ccc(-c2nn(C)c(=O)c3ccccc23)cc1[N+](=O)[O-],–,inconclusive: 4.01%,–
CN(C)C(CNc1ccc(C(F)(F)F)cn1)c1ccccc1 (stereo not drawn),–,inconclusive: -13.4%,–
